Record: PubChem BioAssay AID602196 (INSERM, 2012)

Screen: 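Modifiers of cisplatin sensitivity in A549 cells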
Cells: human A549 lung cancer cells
Reagents: siRNA pair against human genes
Time to read-out: 48 h transfection before cisplatin; time from cisplatin to read-out not stated
Conditions: cisplatin at a dose killing half of control-siRNA cells; exact dose and duration not given
Detection: 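Shift in cisplatin death relative to control siRNA, from -50 (all cells die) to +50 (no cells die); siRNAs harmful on their own scored 0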
Scale: two-siRNA summed score (-2 to +2): higher = both siRNAs protect from cisplatin killing; -2 means both sensitise; mean protection from cisplatin (shift in death): higher = protection from cisplatin killing
Active means: 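siRNAs harmful alone (LDH or WST-1) get 0; others get +1 for less and -1 for more cisplatin killing; genes are active when the two siRNAs give the same sign, summing to ±2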
Meaning of the calls: active = both siRNAs shift cisplatin killing the same way; inactive = no consistent shift, or siRNA harmful alone
This is a random part of about 23,000 deposited reagents. Over the whole deposit, 455 (2%) were called active. 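Active includes both protection and sensitisation; some change values fall well beyond the stated -50 to +50 range.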 Further read-outs or replicates are left out here. Not given: the amount of reagent.

The opening 4 records, to show the layout:
KLF4 [SID131506452]: two-siRNA summed score (-2 to +2) = 0; mean protection from cisplatin (shift in death) (%) = -1.5; activity call = inactive
WDFY3 [SID131512598]: two-siRNA summed score (-2 to +2) = 0; mean protection from cisplatin (shift in death) (%) = 5.7; activity call = inactive
CRHBP [SID131503929]: two-siRNA summed score (-2 to +2) = 0; mean protection from cisplatin (shift in death) (%) = -7.1; activity call = inactive
SNX12 [SID131504158]: two-siRNA summed score (-2 to +2) = 0; mean protection from cisplatin (shift in death) (%) = -6.3; activity call = inactive

The list itself, from the start:
KLF4 [SID131506452]: two-siRNA summed score (-2 to +2) = 0; mean protection from cisplatin (shift in death) (%) = -1.5; activity call = inactive
WDFY3 [SID131512598]: two-siRNA summed score (-2 to +2) = 0; mean protection from cisplatin (shift in death) (%) = 5.7; activity call = inactive
CRHBP [SID131503929]: two-siRNA summed score (-2 to +2) = 0; mean protection from cisplatin (shift in death) (%) = -7.1; activity call = inactive
SNX12 [SID131504158]: two-siRNA summed score (-2 to +2) = 0; mean protection from cisplatin (shift in death) (%) = -6.3; activity call = inactive
ERAL1 [SID131506914]: two-siRNA summed score (-2 to +2) = 0; mean protection from cisplatin (shift in death) (%) = -0.8; activity call = inactive
LOC440937 [SID131515531]: two-siRNA summed score (-2 to +2) = 0; mean protection from cisplatin (shift in death) (%) = 9.3; activity call = inactive
LNCRI [SID131506595]: two-siRNA summed score (-2 to +2) = 0; mean protection from cisplatin (shift in death) (%) = -1.3; activity call = inactive
ACKR4 [SID131510100]: two-siRNA summed score (-2 to +2) = 0; mean protection from cisplatin (shift in death) (%) = 2.9; activity call = inactive
BNIP1 [SID131505755]: two-siRNA summed score (-2 to +2) = 0; mean protection from cisplatin (shift in death) (%) = -2.6; activity call = inactive
ICA1L [SID131509457]: two-siRNA summed score (-2 to +2) = 0; mean protection from cisplatin (shift in death) (%) = 2.2; activity call = inactive
ICA1L [SID131513953]: two-siRNA summed score (-2 to +2) = 0; mean protection from cisplatin (shift in death) (%) = 7.2; activity call = inactive
PAK4 [SID131505824]: two-siRNA summed score (-2 to +2) = 0; mean protection from cisplatin (shift in death) (%) = -2.5; activity call = inactive
H1-1 [SID131522089]: two-siRNA summed score (-2 to +2) = 1; mean protection from cisplatin (shift in death) (%) = 16.2; activity call = inactive
NUFIP2 [SID131505641]: two-siRNA summed score (-2 to +2) = 0; mean protection from cisplatin (shift in death) (%) = -2.8; activity call = inactive
KLF10 [SID131502180]: two-siRNA summed score (-2 to +2) = -1; mean protection from cisplatin (shift in death) (%) = -4.6; activity call = inactive
ZNF584 [SID131515336]: two-siRNA summed score (-2 to +2) = 0; mean protection from cisplatin (shift in death) (%) = 9; activity call = inactive
LOC441879 [SID131520341]: two-siRNA summed score (-2 to +2) = 1; mean protection from cisplatin (shift in death) (%) = 9.6; activity call = inactive
PKP3 [SID131522845]: two-siRNA summed score (-2 to +2) = 1; mean protection from cisplatin (shift in death) (%) = 26.7; activity call = inactive
EFL1P1 [SID131506632]: two-siRNA summed score (-2 to +2) = 0; mean protection from cisplatin (shift in death) (%) = -1.2; activity call = inactive
OR5K3 [SID131519272]: two-siRNA summed score (-2 to +2) = 1; mean protection from cisplatin (shift in death) (%) = 4.3; activity call = inactive
TMLHE [SID131514359]: two-siRNA summed score (-2 to +2) = 0; mean protection from cisplatin (shift in death) (%) = 7.7; activity call = inactive
EBNA1BP2 [SID131522395]: two-siRNA summed score (-2 to +2) = 1; mean protection from cisplatin (shift in death) (%) = 18.2; activity call = inactive
ZNF818P [SID131508946]: two-siRNA summed score (-2 to +2) = 0; mean protection from cisplatin (shift in death) (%) = 1.6; activity call = inactive
LOC199897 (retired record) [SID131523072]: two-siRNA summed score (-2 to +2) = 2; mean protection from cisplatin (shift in death) (%) = 18.6; activity call = active
KMT2E [SID131509041]: two-siRNA summed score (-2 to +2) = 0; mean protection from cisplatin (shift in death) (%) = 1.8; activity call = inactive
GABRB1 [SID131512500]: two-siRNA summed score (-2 to +2) = 0; mean protection from cisplatin (shift in death) (%) = 5.5; activity call = inactive
RAD9A [SID131505086]: two-siRNA summed score (-2 to +2) = 0; mean protection from cisplatin (shift in death) (%) = -3.8; activity call = inactive
REDIC1 [SID131515501]: two-siRNA summed score (-2 to +2) = 0; mean protection from cisplatin (shift in death) (%) = 9.3; activity call = inactive
LOC441220 [SID131510364]: two-siRNA summed score (-2 to +2) = 0; mean protection from cisplatin (shift in death) (%) = 3.2; activity call = inactive
LOC441199 [SID131513709]: two-siRNA summed score (-2 to +2) = 0; mean protection from cisplatin (shift in death) (%) = 6.9; activity call = inactive
HDHD5 [SID131510620]: two-siRNA summed score (-2 to +2) = 0; mean protection from cisplatin (shift in death) (%) = 3.4; activity call = inactive
LINC01951 [SID131502256]: two-siRNA summed score (-2 to +2) = -1; mean protection from cisplatin (shift in death) (%) = -4; activity call = inactive
ROR1 [SID131522755]: two-siRNA summed score (-2 to +2) = 1; mean protection from cisplatin (shift in death) (%) = 23; activity call = inactive
PPP4R2 [SID131504771]: two-siRNA summed score (-2 to +2) = 0; mean protection from cisplatin (shift in death) (%) = -4.5; activity call = inactive
INTS2 [SID131506539]: two-siRNA summed score (-2 to +2) = 0; mean protection from cisplatin (shift in death) (%) = -1.4; activity call = inactive
IP6K3 [SID131516955]: two-siRNA summed score (-2 to +2) = 0; mean protection from cisplatin (shift in death) (%) = 12.1; activity call = inactive
MLH1 [SID131504300]: two-siRNA summed score (-2 to +2) = 0; mean protection from cisplatin (shift in death) (%) = -5.8; activity call = inactive
LOC387697 [SID131500771]: two-siRNA summed score (-2 to +2) = -1; mean protection from cisplatin (shift in death) (%) = -16.3; activity call = inactive
AGMAT [SID131511419]: two-siRNA summed score (-2 to +2) = 0; mean protection from cisplatin (shift in death) (%) = 4.3; activity call = inactive
DDIT4 [SID131504201]: two-siRNA summed score (-2 to +2) = 0; mean protection from cisplatin (shift in death) (%) = -6.1; activity call = inactive
